Measured values as given in the supplement of paper PMC6411743.
± gives the standard deviation of the averaged measurements. The list shows a part of the results.

Chains of the proteins cited; added tags and fusions are not shown. Lines headed by an entry give the natural chain unless they say otherwise; changes in a name come on top.
UniProt Q96G25: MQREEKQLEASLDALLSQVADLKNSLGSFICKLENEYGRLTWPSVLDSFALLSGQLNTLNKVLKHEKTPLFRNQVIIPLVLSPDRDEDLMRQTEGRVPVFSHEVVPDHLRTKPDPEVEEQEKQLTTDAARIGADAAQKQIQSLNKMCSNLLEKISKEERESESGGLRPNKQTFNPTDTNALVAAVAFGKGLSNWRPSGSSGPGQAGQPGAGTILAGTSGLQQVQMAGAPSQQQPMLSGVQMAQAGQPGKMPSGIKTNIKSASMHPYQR
UniProt Q96H20: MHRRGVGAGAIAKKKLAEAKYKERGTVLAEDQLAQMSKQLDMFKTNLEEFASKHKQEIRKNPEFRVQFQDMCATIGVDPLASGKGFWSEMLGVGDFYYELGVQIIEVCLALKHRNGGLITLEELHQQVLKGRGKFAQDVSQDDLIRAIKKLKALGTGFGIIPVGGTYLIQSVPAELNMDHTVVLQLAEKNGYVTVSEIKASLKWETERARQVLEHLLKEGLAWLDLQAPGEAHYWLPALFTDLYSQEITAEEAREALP
UniProt Q96CT7: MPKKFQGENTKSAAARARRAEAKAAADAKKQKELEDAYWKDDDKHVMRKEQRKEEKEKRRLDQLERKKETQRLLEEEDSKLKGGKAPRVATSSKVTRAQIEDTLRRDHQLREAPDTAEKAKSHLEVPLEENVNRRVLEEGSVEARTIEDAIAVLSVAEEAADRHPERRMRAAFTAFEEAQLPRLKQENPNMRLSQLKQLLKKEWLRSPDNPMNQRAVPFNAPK
UniProt Q8WVQ1: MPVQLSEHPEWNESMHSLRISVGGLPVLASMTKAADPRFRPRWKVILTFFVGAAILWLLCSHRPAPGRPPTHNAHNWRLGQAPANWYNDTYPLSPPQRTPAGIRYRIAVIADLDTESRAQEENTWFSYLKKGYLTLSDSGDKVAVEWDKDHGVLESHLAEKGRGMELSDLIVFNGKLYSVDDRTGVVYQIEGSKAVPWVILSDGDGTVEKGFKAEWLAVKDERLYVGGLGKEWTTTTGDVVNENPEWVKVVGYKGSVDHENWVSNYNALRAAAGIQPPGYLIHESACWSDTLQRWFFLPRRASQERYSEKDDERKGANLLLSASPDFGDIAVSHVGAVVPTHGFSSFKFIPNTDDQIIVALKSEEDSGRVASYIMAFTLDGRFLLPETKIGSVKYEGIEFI
UniProt Q96BJ3: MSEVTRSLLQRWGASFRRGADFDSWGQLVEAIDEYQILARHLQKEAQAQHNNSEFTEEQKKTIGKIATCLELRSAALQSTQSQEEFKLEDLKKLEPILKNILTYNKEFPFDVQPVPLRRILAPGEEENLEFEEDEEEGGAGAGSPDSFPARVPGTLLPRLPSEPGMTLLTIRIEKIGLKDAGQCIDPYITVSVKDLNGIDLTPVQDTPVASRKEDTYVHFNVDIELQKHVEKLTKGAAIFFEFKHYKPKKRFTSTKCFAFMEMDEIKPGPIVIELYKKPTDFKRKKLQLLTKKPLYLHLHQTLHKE
UniProt Q92572: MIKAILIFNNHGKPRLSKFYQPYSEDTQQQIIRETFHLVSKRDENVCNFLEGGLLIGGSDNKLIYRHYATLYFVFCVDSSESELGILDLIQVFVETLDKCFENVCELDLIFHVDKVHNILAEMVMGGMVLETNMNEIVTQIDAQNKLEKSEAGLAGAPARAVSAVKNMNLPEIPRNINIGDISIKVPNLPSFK
UniProt Q8WVJ2: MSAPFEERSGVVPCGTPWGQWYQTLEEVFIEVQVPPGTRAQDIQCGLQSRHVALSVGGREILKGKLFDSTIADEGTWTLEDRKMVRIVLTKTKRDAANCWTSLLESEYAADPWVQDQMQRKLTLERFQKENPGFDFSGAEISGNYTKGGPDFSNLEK
UniProt Q92828: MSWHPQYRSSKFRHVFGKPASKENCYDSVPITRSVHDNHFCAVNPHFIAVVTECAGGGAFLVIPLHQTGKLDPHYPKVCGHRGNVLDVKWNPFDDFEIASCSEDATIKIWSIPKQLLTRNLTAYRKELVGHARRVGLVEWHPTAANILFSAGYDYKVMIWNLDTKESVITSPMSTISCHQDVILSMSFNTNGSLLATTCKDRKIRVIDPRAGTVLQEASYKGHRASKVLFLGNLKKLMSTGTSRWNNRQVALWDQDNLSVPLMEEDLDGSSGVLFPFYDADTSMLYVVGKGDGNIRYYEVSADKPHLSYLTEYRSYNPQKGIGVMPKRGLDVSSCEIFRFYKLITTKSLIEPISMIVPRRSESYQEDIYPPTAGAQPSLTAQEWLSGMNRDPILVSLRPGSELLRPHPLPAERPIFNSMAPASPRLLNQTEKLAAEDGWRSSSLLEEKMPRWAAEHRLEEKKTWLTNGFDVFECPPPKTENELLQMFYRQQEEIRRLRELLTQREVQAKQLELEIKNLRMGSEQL
UniProt Q969Y2: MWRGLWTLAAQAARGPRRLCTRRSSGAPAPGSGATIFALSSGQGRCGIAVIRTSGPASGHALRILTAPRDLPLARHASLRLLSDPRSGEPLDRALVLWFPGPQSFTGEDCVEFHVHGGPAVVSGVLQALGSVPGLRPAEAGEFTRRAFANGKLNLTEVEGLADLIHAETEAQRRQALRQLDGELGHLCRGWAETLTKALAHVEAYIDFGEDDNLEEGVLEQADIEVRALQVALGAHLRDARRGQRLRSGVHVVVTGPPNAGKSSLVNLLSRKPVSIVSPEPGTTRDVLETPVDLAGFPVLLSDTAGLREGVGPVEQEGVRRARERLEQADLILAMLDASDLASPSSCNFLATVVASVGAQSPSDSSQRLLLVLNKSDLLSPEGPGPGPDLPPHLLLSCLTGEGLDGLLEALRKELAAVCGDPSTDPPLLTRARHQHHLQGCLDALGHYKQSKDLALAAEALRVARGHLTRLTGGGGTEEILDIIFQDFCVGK
UniProt Q92784, whole entry: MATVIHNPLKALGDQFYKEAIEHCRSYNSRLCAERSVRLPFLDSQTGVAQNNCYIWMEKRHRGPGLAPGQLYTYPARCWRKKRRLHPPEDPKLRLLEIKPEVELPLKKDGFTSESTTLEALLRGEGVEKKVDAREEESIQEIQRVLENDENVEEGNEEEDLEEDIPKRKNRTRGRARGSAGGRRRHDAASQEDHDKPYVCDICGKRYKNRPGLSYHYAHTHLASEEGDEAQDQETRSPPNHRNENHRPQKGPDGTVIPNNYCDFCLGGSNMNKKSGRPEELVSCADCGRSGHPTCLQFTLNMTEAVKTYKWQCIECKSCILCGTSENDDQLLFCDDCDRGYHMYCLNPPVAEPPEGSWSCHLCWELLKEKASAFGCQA
UniProt Q8WW59: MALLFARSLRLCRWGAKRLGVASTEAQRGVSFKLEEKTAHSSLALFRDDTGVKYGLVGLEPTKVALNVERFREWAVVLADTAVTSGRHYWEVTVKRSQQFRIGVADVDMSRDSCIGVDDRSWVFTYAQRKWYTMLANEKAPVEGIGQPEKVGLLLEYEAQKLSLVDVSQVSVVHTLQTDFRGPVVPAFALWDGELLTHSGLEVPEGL
UniProt Q96GD0: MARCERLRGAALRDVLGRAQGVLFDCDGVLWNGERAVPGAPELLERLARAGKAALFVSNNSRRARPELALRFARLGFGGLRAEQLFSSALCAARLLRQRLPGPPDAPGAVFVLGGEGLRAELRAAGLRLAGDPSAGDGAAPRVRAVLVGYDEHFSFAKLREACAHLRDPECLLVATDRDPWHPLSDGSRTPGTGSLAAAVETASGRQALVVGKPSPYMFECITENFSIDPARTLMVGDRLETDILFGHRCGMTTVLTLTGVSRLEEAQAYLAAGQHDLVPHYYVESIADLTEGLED

Compound: Nc1nc2c(ncn2[C@@H]2O[C@H](COP(=O)(O)OP(=O)(O)OP(=O)(O)O)[C@@H](O)[C@H]2O)c(=O)[nH]1 [guanosine triphosphate]
Assay: NP40-soluble protein abundance relative to vehicle (solubility fold change) (ratio); higher = more soluble protein in presence of GTP
Outline: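 Across three independent experiments, values are fold changes against the detergent-processed vehicle for each replicate, based on vsn-normalised intensities. The samples were Jurkat crude lysate treated with eight concentrations (0.1 to 10 mM) for 10 min at room temperature and then 3 min at 37 °C. Lysate was solubilised with 0.8% NP40 and benzonase, ultracentrifuged, and the supernatant analysed by TMT-labelled LC-MS/MS.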

Target	NP40-soluble protein abundance (concentration: 0.1mM)	NP40-soluble protein abundance (concentration: 0.5mM)	NP40-soluble protein abundance (concentration: 1mM)	NP40-soluble protein abundance (concentration: 2mM)	NP40-soluble protein abundance (concentration: 4mM)	NP40-soluble protein abundance (concentration: 6mM)	NP40-soluble protein abundance (concentration: 8mM)	NP40-soluble protein abundance (concentration: 10mM)
UniProt Q96G25 and related entries	1.02 ± 0.06	0.981 ± 0.017	1.08 ± 0.027	1.07 ± 0.07	1.11 ± 0.22	1.06 ± 0.19	1.13 ± 0.14	1.17 ± 0.21
UniProt Q96H20 and related entries	0.98 ± 0.027	0.913 ± 0.035	0.98 ± 0.059	0.943 ± 0.061	0.947 ± 0.075	0.907 ± 0.071	0.909 ± 0.14	0.893 ± 0.058
CCDC124 (UniProt Q96CT7)	1.01 ± 0.047	0.984 ± 0.019	1.12 ± 0.063	1.17 ± 0.067	1.41 ± 0.17	1.57 ± 0.22	1.61 ± 0.22	2.24 ± 0.18
UniProt Q8WVQ1 and related entries	0.964 ± 0.072	0.96 ± 0.081	0.9177 ± 0.0053	0.908 ± 0.035	0.929 ± 0.079	0.898 ± 0.026	0.918 ± 0.11	0.927 ± 0.097
AIDA (UniProt Q96BJ3)	0.969 ± 0.099	0.958 ± 0.099	0.959 ± 0.097	0.926 ± 0.12	0.887 ± 0.066	0.873 ± 0.092	0.915 ± 0.11	0.887 ± 0.12
UniProt Q92572	1.03 ± 0.088	1 ± 0.054	1.03 ± 0.057	0.978 ± 0.051	0.997 ± 0.053	0.976 ± 0.054	1 ± 0.079	0.966 ± 0.051
NUDCD2 (UniProt Q8WVJ2)	0.901 ± 0.067	0.894 ± 0.088	0.907 ± 0.082	0.876 ± 0.11	0.846 ± 0.12	0.868 ± 0.13	0.849 ± 0.11	0.891 ± 0.11
CORO2A (UniProt Q92828)	1.08 ± 0.12	1.09 ± 0.11	1.11 ± 0.049	1.19 ± 0.047	1.31 ± 0.056	1.42 ± 0.075	1.42 ± 0.1	1.42 ± 0.058
UniProt Q969Y2 and related entries	0.99 ± 0.054	0.966 ± 0.094	0.933 ± 0.035	0.931 ± 0.04	0.914 ± 0.038	0.899 ± 0.052	0.892 ± 0.04	0.886 ± 0.066
UniProt Q92784 and related entries	1.01 ± 0.1	0.999 ± 0.077	1.05 ± 0.072	1.13 ± 0.061	1.15 ± 0.088	1.13 ± 0.063	1.19 ± 0.17	1.18 ± 0.13
SPRYD4 (UniProt Q8WW59)	0.997 ± 0.087	0.982 ± 0.034	0.908 ± 0.029	0.935 ± 0.068	0.952 ± 0.067	0.872 ± 0.031	0.891 ± 0.045	0.8721 ± 0.0083
UniProt Q96GD0 and related entries	0.991 ± 0.027	0.969 ± 0.064	0.857 ± 0.046	0.886 ± 0.06	0.878 ± 0.044	0.85 ± 0.033	0.816 ± 0.067	0.823 ± 0.041
